# Assay results taken from the supplement of paper PMC9135407.
# Several values for one entry are separate records, joined by “and”; a condition that tells them apart may be missing. Equal values may be shown once. Where a name gives a salt, the structure may show the parent alone. ± gives the standard deviation of the averaged measurements. The list shows a part of the results. Plates or batches differ in their baseline, so values are only roughly comparable.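 Primary human stellate myofibroblasts activated in culture; inactivation shown by regained lipid droplets. Readout: fraction of Hoechst-counted cells exceeding a per-plate Bodipy threshold, duplicate wells, each plate with DMSO negative and nortriptyline positive controls. Hits: control-normalized score beyond the plate's top-tenth-percentile nortriptyline wells, or among its three best wells. Final well concentrations unstated.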
# Tested on: primary human hepatic stellate cells (donor 1)
# Assay: percent Bodipy-positive cells; higher = more lipid droplet accumulation
# Conditions: 48 h
# [1] = library stock concentration: 10 mM
# [2] = library stock concentration: 3.33 mM
# [3] = library stock concentration: 1 mM
# [4] = library stock concentration: 80 uM
# [5] = library stock concentration: 400 uM
# [6] = library stock concentration: 2 mM
structure (smiles),measurement,setting,value
C[C@H](Cn1cnc2c(N)ncnc21)OCP(=O)(O)O,percent Bodipy-positive cells,[1],34.4 ± 4.5%
CNC(=O)c1c(I)c(C(=O)NCC(=O)Nc2c(I)c(C(=O)O)c(I)c(C(=O)NCCO)c2I)c(I)c(N(C)C(C)=O)c1I [Ioxaglic acid],percent Bodipy-positive cells,,6.51 ± 1.1%
Fc1ccc2[nH]c(CN3CCN(c4ccccn4)CC3)cc2c1,percent Bodipy-positive cells,[1],22.1 ± 0.42%
O=c1ccn([C@@H]2O[C@H](CO)[C@@H](O)[C@H]2O)c(=O)[nH]1 [Uridine],percent Bodipy-positive cells,[2],9.5 ± 8.2%
same,percent Bodipy-positive cells,[1],11.1 ± 1.7%
COc1ccc2[nH]c(-c3ccccc3)c(CCNC(C)=O)c2c1 [2-Phenylmelatonin],percent Bodipy-positive cells,[1],6.87 ± 0.19%
CC(C)(C)c1ccc(C(=O)CCCN2CCC(OC(c3ccccc3)c3ccccc3)CC2)cc1 [Ebastine],percent Bodipy-positive cells,[1],100%
CCCCCC(O)c1cccc(OCc2ccc3ccccc3n2)c1 (stereo unspecified),percent Bodipy-positive cells,[3],8.39% and 14.9%
CCCCC/C=C\C/C=C\CCCCCCCCCC(=O)O [Eicosadienoic acid (20:2 n-6)],percent Bodipy-positive cells,[3],6.43 ± 2.8%
CS(=O)(=O)O.N=C(N)SCCc1ccc(OCc2ccc([N+](=O)[O-])cc2)cc1 [KB-R7943 mesylate],percent Bodipy-positive cells,[1],91.77 ± 0.48%
CC(C)n1c(/C=C/C(O)CC(O)CC(=O)O)c(-c2ccc(F)cc2)c2ccccc21 (stereo unspecified) [Fluvastatin sodium salt],percent Bodipy-positive cells,,38.2 ± 0.49%
CC(C)n1c(/C=C/C(O)CC(O)CC(=O)O)c(-c2ccc(F)cc2)c2ccccc21 (stereo unspecified) [fluvastatin],percent Bodipy-positive cells,[1],87.4 ± 7.7%
CC(C)n1c(/C=C/C(O)CC(O)CC(=O)O)c(-c2ccc(F)cc2)c2ccccc21 (stereo unspecified) [Fluvastatin Sodium],percent Bodipy-positive cells,[2],34 ± 16%
same,percent Bodipy-positive cells,[1],36.5 ± 4%
CC(=O)CCCCn1cnc2c1c(=O)n(C)c(=O)n2C,percent Bodipy-positive cells,[1],6.67 ± 0.22%
O=C1CCC[C@@H]2[C@H]3CCC[N+]4([O-])CCC[C@@H](CN12)[C@@H]34 (stereo partly specified) [Oxymatrine],percent Bodipy-positive cells,[2],10.1 ± 1.7%
same,percent Bodipy-positive cells,[1],15.6 ± 0.35%
COC(=O)C(Cc1ccc(OCCn2c(=O)sc3cc(C(=O)c4ccccc4)ccc32)cc1)C(=O)OC,percent Bodipy-positive cells,[1],7.58 ± 4.1%
CCCCC/C=C\C/C=C\CCCCCCCC(=O)NCC(=O)O [N-linoleoylglycine],percent Bodipy-positive cells,[3],9.09 ± 8%
CS(=O)(=O)O.Cc1ccc(NC(=O)c2ccc(CN3CCN(C)CC3)cc2)cc1Nc1nccc(-c2cccnc2)n1,percent Bodipy-positive cells,[1],75.2 ± 12%
COc1cccc2cc(-c3nc([C@H]4CC[C@H](C(=O)O)CC4)n4ncnc(N)c34)[nH]c12,percent Bodipy-positive cells,[4],9.32 ± 4.1%
same,percent Bodipy-positive cells,[5],4.64 ± 1.5%
same,percent Bodipy-positive cells,[6],6.21 ± 5.7%
same,percent Bodipy-positive cells,[2],3.2 ± 1.6%
same,percent Bodipy-positive cells,[1],10.4% and 8.78%
Clc1ccc(C(Cn2ccnc2)OCc2ccc(Sc3ccccc3)cc2)c(Cl)c1 (stereo unspecified) [Fenticonazole Nitrate],percent Bodipy-positive cells,[2],14.7 ± 6.1%
same,percent Bodipy-positive cells,[1],87.1 ± 5.2%
CC[C@H](C)C(=O)O[C@H]1C[C@@H](C)C=C2C=C[C@H](C)[C@H](CC[C@@H]3C[C@@H](O)CC(=O)O3)[C@H]21 [Lovastatin],percent Bodipy-positive cells,,54.98 ± 0.3%
same,percent Bodipy-positive cells,[2],18.6 ± 6.6%
same,percent Bodipy-positive cells,library stock concentration: 4.9 mM,23.7% and 20.2%
Cc1c(C)c2c(c(C)c1O)CCC(C)(C(=O)O)O2 (stereo unspecified) [Trolox],percent Bodipy-positive cells,,21.8 ± 2.8%
CCCCCCCCCCCCCCCC(=O)OCC(COP(=O)(O)O)OC(=O)CCCCCCCCCCCCCCC (stereo unspecified) [Dipalmitoylphosphatidic acid],percent Bodipy-positive cells,[3],11.5 ± 10%
CC(C)=CCC/C(C)=C/CC/C(C)=C/CC/C(C)=C/CC/C(C)=C/CC/C(C)=C/CC1=C(C)C(=O)c2ccccc2C1=O [Vitamin K2],percent Bodipy-positive cells,,3.82 ± 1.8%
CCN(CC)CCOC(=O)c1ccc(N)cc1 [Procaine hydrochloride],percent Bodipy-positive cells,,41.8 ± 0.45%
same,percent Bodipy-positive cells,library stock concentration: 7.3 mM,15.2 ± 2.3%
same,percent Bodipy-positive cells,[1],13.7% and 10.1%
CCN(CC)CCOC(=O)c1ccc(N)cc1 [Procaine HCl],percent Bodipy-positive cells,[2],10.6 ± 2.8%
same,percent Bodipy-positive cells,[1],28.3 ± 9.3%
Cn1ccnc1 [1-Methylimidazole],percent Bodipy-positive cells,[1],44.6 ± 2.7%
CC1(c2ccccc2)OC(C(=O)O)=CC1=O (stereo unspecified) [Acifran],percent Bodipy-positive cells,[1],7.8 ± 3.1%
O=c1[nH]c2cc(C(F)(F)F)ccc2n1-c1cc(C(F)(F)F)ccc1O,percent Bodipy-positive cells,[1],55.4 ± 0.33%
same,percent Bodipy-positive cells,library stock concentration: 13.8 mM,20 ± 4.6%
COc1cc(C2Oc3cc([C@H]4Oc5cc(O)cc(O)c5C(=O)[C@@H]4O)ccc3OC2CO)ccc1O (stereo partly specified) [Silibinin],percent Bodipy-positive cells,[2],8.22 ± 1.8%
same,percent Bodipy-positive cells,[1],9.78% and 32.4%
COc1cc(C2Oc3cc([C@H]4Oc5cc(O)cc(O)c5C(=O)[C@@H]4O)ccc3OC2CO)ccc1O (stereo partly specified) [Silymarin],percent Bodipy-positive cells,[2],7.53 ± 0.67%
same,percent Bodipy-positive cells,[1],23.6 ± 9.7%
O=C1Nc2ccc(-c3cccnc3)cc2/C1=C/c1ccc[nH]1 [JAK3 Inhibitor VI],percent Bodipy-positive cells,[2],16.1 ± 4.6%
O=c1cc(-c2ccccc2)oc2cc(O)c(O)c(O)c12 [Baicalein],percent Bodipy-positive cells,[3],16.7 ± 2.7%
same,percent Bodipy-positive cells,[2],4.52 ± 1.8%
CC(C)CCCC(C)N (stereo unspecified) [Octodrine],percent Bodipy-positive cells,library stock concentration: 15.5 mM,5.2 ± 1.8%
Br.Br.CN(CCc1ccc(Cl)c(Cl)c1)CCN1CCCC1 [BD 1008 dihydrobromide],percent Bodipy-positive cells,[1],57.8 ± 3.8%
N[C@@H](CCCC(=O)O)C(=O)O [L-2-aminoadipic acid],percent Bodipy-positive cells,[1],59.6 ± 0.68%
CN(C)CCn1nnnc1SCC1=C(C(=O)O)N2C(=O)[C@@H](NC(=O)Cc3csc(N)n3)[C@H]2SC1 [Cefotiam hydrochloride],percent Bodipy-positive cells,,39.6 ± 27%
O=C(O)Cc1cccc(OCCCN(Cc2cccc(C(F)(F)F)c2Cl)CC(c2ccccc2)c2ccccc2)c1,percent Bodipy-positive cells,[2],20.1 ± 3.5%
same,percent Bodipy-positive cells,[1],26.57 ± 0.08%
O=C(O)Cc1cccc(OCCCN(Cc2cccc(C(F)(F)F)c2Cl)CC(c2ccccc2)c2ccccc2)c1 [GW 3965 hydrochloride],percent Bodipy-positive cells,[1],9.47 ± 2.8%
"O=c1cc(-c2ccccc2)[nH]c2nc(Cl)ccc12 [7-Chloro-4-hydroxy-2-phenyl-1,8-naphthyridine]",percent Bodipy-positive cells,[1],40.8 ± 3.3%
O=c1[nH]c(=O)c2nc3ccccc3nc2[nH]1 [Alloxazine],percent Bodipy-positive cells,[1],35.3 ± 9.5%
N#C/C(=C\c1ccc(O)c(O)c1)C(=O)NCCc1ccccc1 [Tyrphostin AG 698],percent Bodipy-positive cells,[1],31 ± 6.4%
CC(=O)O[C@H]1C[C@@]2(C)[C@@H](C[C@@H](O)[C@H]3[C@@]4(C)CC[C@@H](O)[C@@H](C)[C@@H]4CC[C@@]32C)/C1=C(\CCC=C(C)C)C(=O)O [Fusidic acid sodium salt],percent Bodipy-positive cells,,25.9 ± 4.2%
CC(=O)O[C@H]1C[C@@]2(C)[C@@H](C[C@@H](O)[C@H]3[C@@]4(C)CC[C@@H](O)[C@@H](C)[C@@H]4CC[C@@]32C)/C1=C(\CCC=C(C)C)C(=O)O [Fusidic acid sodium],percent Bodipy-positive cells,[1],38.3 ± 11%
CC(=O)O[C@H]1C[C@@]2(C)[C@@H](C[C@@H](O)[C@H]3[C@@]4(C)CC[C@@H](O)[C@@H](C)[C@@H]4CC[C@@]32C)/C1=C(\CCC=C(C)C)C(=O)O [Fusidic acid],percent Bodipy-positive cells,[1],12.5 ± 1.1%
CC(=O)N[C@@H](CS)C(=O)O [N-Acetyl-L-Cysteine],percent Bodipy-positive cells,[1],52.4 ± 12%
CC(=O)N[C@@H](CS)C(=O)O [Acetylcysteine],percent Bodipy-positive cells,[2],9.41 ± 3.7%
same,percent Bodipy-positive cells,[1],15.1% and 10.7%
same,percent Bodipy-positive cells,library stock concentration: 12.3 mM,2.16 ± 0.46%
C[C@]1(c2nc3c(C(N)=O)cccc3[nH]2)CCCN1 [Veliparib],percent Bodipy-positive cells,[4],28 ± 19%
same,percent Bodipy-positive cells,[5],31.4 ± 16%
same,percent Bodipy-positive cells,[6],33.5 ± 23%
same,percent Bodipy-positive cells,[1],33.5 ± 24%
C[C@]1(c2nc3c(C(N)=O)cccc3[nH]2)CCCN1 [Veliparib (ABT-888)],percent Bodipy-positive cells,[2],9.95 ± 7.4%
same,percent Bodipy-positive cells,[1],25.6 ± 5.1%
"CCCCCC(=O)CC[C@H]1C(=O)C[C@H](O)[C@@H]1C/C=C\CCCC(=O)O [13,14-dihydro-15-keto Prostaglandin D2]",percent Bodipy-positive cells,[3],8.37 ± 1.1%
O=C(O)CCC/C=C\C[C@H]1C(=O)C[C@@H](O)[C@@H]1/C=C/[C@@H](O)Cc1ccccc1 [16-phenyl tetranor Prostaglandin E2],percent Bodipy-positive cells,[3],17.9 ± 6.3%
CNCCCC12CCC(c3ccccc31)c1ccccc12 [Maprotiline HCl],percent Bodipy-positive cells,[2],59 ± 5.6%
CNCCCC12CCC(c3ccccc31)c1ccccc12 [Maprotilline HCl],percent Bodipy-positive cells,[1],97.36 ± 0.96%
CCc1c(O)cc(O)c(C(=O)c2ccc(OCCN3CCOCC3)c(OC)c2)c1CC(=O)N(CCOC)CCOC,percent Bodipy-positive cells,[2],60.9 ± 6.9%
same,percent Bodipy-positive cells,[1],63.2 ± 1.2%
CC[C@H]1OC(=O)C[C@@H](O)[C@H](C)[C@@H](O[C@@H]2O[C@H](C)[C@@H](O)[C@H](N(C)C)[C@H]2O)[C@@H](CCN2C[C@H](C)C[C@H](C)C2)C[C@@H](C)C(=O)/C=C/C(C)=C/[C@@H]1CO[C@@H]1O[C@H](C)[C@@H](O)[C@@H](OC)[C@H]1OC [Tilmicosin],percent Bodipy-positive cells,library stock concentration: 2.3 mM,24.8 ± 5.8%
same,percent Bodipy-positive cells,[2],30.4 ± 3.6%
same,percent Bodipy-positive cells,[1],83.8 ± 0.71%
O=C1Cc2c([nH]c3ccc(Br)cc23)-c2ccccc2N1 [Kenpaullone],percent Bodipy-positive cells,[3],10.2 ± 1.3%
same,percent Bodipy-positive cells,[2],19.9 ± 1.8%
Cc1coc2c1C(=O)C(=O)c1c-2ccc2c1CCCC2(C)C [Tanshinone IIA],percent Bodipy-positive cells,[2],27.1 ± 17%
same,percent Bodipy-positive cells,[1],54.9 ± 6.6%
same,percent Bodipy-positive cells,library stock concentration: 17 mM,27.2 ± 3.9%
Cc1coc2c1C(=O)C(=O)c1c-2ccc2c1CCCC2(C)C [Tanshinone iia],percent Bodipy-positive cells,library stock concentration: 6.8 mM,36.9 ± 3%
COc1ccc2c(c1)c(CC(=O)N1CCOCC1)c(C)n2C(=O)c1ccc(Cl)cc1,percent Bodipy-positive cells,[3],23.2 ± 15%
same,percent Bodipy-positive cells,[2],8.76 ± 3.2%
same,percent Bodipy-positive cells,[1],22% and 7.66%
CC(C)(C)n1nc(-c2cccc3ccccc23)c2c(N)ncnc21 [1-Naphthyl PP1],percent Bodipy-positive cells,[1],5.01 ± 1.7%
OC(c1cc(C(F)(F)F)nc2c(C(F)(F)F)cccc12)C1CCCCN1 (stereo unspecified) [Mefloquine hydrochloride],percent Bodipy-positive cells,,80.2 ± 7.8%
same,percent Bodipy-positive cells,[1],98.5 ± 0.37%
OC(c1cc(C(F)(F)F)nc2c(C(F)(F)F)cccc12)C1CCCCN1 (stereo unspecified) [Mefloquine HCl],percent Bodipy-positive cells,[2],67.8 ± 8.5%
same,percent Bodipy-positive cells,[1],83.1 ± 6.2%
OC(c1cc(C(F)(F)F)nc2c(C(F)(F)F)cccc12)C1CCCCN1 (stereo unspecified) [Mefloquine],percent Bodipy-positive cells,library stock concentration: 4.8 mM,81.2 ± 2.2%
same,percent Bodipy-positive cells,[1],72.1 ± 11%
CC[C@@H]1C(=O)N(C)c2cnc(Nc3ccc(C(=O)NC4CCN(C)CC4)cc3OC)nc2N1C1CCCC1,percent Bodipy-positive cells,[5],82.4 ± 1.4%
C[C@@H]1C[C@H]2[C@@H]3C[C@H](F)C4=CC(=O)C=C[C@]4(C)[C@@]3(Cl)[C@@H](O)C[C@]2(C)[C@H]1C(=O)COC(=O)C(C)(C)C [Clocortolone pivalate],percent Bodipy-positive cells,,6.08 ± 2.2%
Nc1nc(Cl)nc2c1ncn2[C@@H]1O[C@H](COP(=O)(O)OP(=O)(O)OP(=O)(O)O)[C@H](O)C1O (stereo partly specified) [2-Chloroadenosine triphosphate tetrasodium],percent Bodipy-positive cells,[1],70.2 ± 5.1%
CN(C)Cc1cccc(N=C(c2ccccc2)c2c(O)[nH]c3cc(C(=O)N(C)C)ccc23)c1,percent Bodipy-positive cells,[4],17.8 ± 7.6%
same,percent Bodipy-positive cells,[5],19.5 ± 0.27%
same,percent Bodipy-positive cells,[6],26 ± 6.6%
same,percent Bodipy-positive cells,[2],29.1 ± 1.7%
same,percent Bodipy-positive cells,[1],59.5% and 69.8%
NC[C@@H](O)c1ccc(O)c(O)c1 [L(-)-Norepinephrine bitartrate],percent Bodipy-positive cells,[1],51.7 ± 15%
